We go through one molecule from US20250326791A1.

These are yes or no findings as the source states them, for the method shown. Some entries that bind do so weakly or less than the wild type.

In the assay the target is T1, L-fucose bearing asialofetuin (model glycoprotein) (UniProt P12763).
T1 sequence (desialylated glycoprotein bearing L-fucose, looked up): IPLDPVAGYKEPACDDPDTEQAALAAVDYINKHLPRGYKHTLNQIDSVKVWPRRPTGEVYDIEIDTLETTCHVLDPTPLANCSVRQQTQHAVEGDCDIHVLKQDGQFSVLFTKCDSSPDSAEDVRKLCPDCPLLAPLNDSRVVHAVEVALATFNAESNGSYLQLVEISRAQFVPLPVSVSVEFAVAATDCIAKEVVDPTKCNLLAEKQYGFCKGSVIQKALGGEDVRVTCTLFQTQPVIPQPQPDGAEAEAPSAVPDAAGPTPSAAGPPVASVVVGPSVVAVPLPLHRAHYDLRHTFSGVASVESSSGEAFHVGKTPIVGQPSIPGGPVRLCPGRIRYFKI
The assay is described as follows: ITC. A general note: ITC needs no label: the signal is the heat of the interaction.

RVFSLCNATYPYKGACP (cyclo: disulfide bond Cys6-Cys16) [Control: RVFSL-cyclo[…]P]: the binding result was “binds”.
